These are yes or no findings as the source states them, for the method shown. Binding seen in cells or lysates may run through a third protein. A result given as binding can be weak or reduced; the word gives no strength. Where a sequence is shown, tags or fusion partners need not be part of it.
Molecular target: T1, CREB::GFP (C. elegans) (UniProt Q9U2I0)
T1 sequence: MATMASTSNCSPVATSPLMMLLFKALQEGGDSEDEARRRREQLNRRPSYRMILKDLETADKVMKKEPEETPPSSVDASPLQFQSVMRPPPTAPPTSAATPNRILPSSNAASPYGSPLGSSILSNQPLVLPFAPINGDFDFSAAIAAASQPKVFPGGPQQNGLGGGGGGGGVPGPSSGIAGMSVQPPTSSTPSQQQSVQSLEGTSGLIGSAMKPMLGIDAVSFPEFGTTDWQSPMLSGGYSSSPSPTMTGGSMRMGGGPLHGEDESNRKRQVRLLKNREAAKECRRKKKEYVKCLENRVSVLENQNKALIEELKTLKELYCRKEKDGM
Assay: co-IP

binding: binds
Substance: THOC-1::3xHA::tdTomato (from UniProt Q9N5E3)

From article doi:10.1101/282137
